Data reported in US20250188068A1, “AMIDO CYCLOPROPYL DERIVATIVES AS LPA RECEPTOR INHIBITORS” (CHIESI FARMACEUTICI S.P.A., priority 2022, published 2025).
Some results were stated once for a whole list of compounds, not compound by compound.

Protein sequences, listed by entry. Tags and fused reporters are not part of them. Lines headed by an entry give the natural chain unless they say otherwise; changes in a name come on top.
UniProt Q92633: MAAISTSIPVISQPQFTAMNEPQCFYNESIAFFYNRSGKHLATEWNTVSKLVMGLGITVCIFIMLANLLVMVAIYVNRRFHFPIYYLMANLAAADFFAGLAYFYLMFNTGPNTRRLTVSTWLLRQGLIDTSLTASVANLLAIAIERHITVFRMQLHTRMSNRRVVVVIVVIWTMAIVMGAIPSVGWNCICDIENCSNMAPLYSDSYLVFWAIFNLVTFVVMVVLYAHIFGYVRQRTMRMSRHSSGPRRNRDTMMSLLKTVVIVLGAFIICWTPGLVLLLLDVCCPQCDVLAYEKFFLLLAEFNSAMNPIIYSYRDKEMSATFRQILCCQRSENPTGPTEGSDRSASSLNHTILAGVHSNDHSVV

How the values were obtained:
[1] = test system: Caco-2 cells monolayers (human colon carcinoma cell line); assay: Caco-2 cell monolayer permeability assay (AtoB/BtoA, with and without P-gp inhibitor Elacridar); settings: Papp AtoB with P-gp inhibitor Elacridar, Caco-2, pH 7.4, 10 μM, 60 min
[2] = target: T1, human recombinant LPA1 expressed in CHO cells (Homo sapiens, UniProt Q92633); assay: FLIPR calcium mobilization assay, LPA1 antagonism in CHO-hLPA1 cells; format: cell-based; settings: inhibition of LPA EC80 Ca2+ response, 30 min pre-incubation, range of activity
T1 construct: expressed in transfected cells; host or cells: CHO cells (CHO-hLPA1 cell line)
Experimental: The effectiveness of compounds of the present invention as LPA1 antagonist can be determined at the human recombinant LPA1 expressed in CHO cells, using a FLIPR assay in 384 well format.
CHO-hLPA1 cell lines are cultured in a humidified incubator at 5% CO2 in DMEM/F-12 (1:1) MIXTURE with 2 mM Glutamax, supplemented with 10% of Foetal Bovine Serum, 1 mM Sodium Pyruvate, 11 mM Hepes and 1× Penicillin/Streptomycin. CHO hLPA1 cells are seeded into black walled clear-bottom 384-well plates (#781091, Greiner Bio-One GmbH) at a density of 7,500 cells per well in 50 μl culture media and grown overnight in a 37° C. humidified CO2-incubator. Serial dilutions (1:3 or 1:4, 11 points CRC) of compounds are performed in 100% DMSO at 200× the final concentration. […] The loaded cell plates are transferred into the FLIPR instrument and calcium responses are monitored during the on-line addition protocols. […] Intracellular peak fluorescence values subtracted by baseline fluorescence are exported and analysed to determine IC50 values, respectively. The calcium response is expressed as percentage of the maximal inhibition of the EC80 agonist response. […]
The raw data (peak height expressed as relative fluorescence units) are normalized and transformed into “percent of inhibition”. […]

Structure (SMILES)	Passive Permeability [1] [×10⁻⁶ cm/s]	IC50 [2] [nM]
Cc1noc(-c2ccc(NC(=O)C3C(C(=O)O)C3(F)F)cn2)c1NC(=O)O[C@H](C)c1ccccc1Cl (single isomer, unassigned) [Compound 5]	≤0.5	
Cc1nc(-c2onc(C)c2NC(=O)O[C@H](C)c2ccccc2Cl)ccc1NC(=O)C1C(c2noc(=S)[nH]2)C1(F)F (stereo partly drawn) [Compound 41, (R)-1-(2-chlorophenyl)ethyl (5-(5-(2,2-difluoro-3-(5-thioxo-4,5-dihydro-1,2,4-oxadiazol-3-yl)cyclopropane-1-carboxamido)-6-methylpyridin-2-yl)-3-methylisoxazol-4-yl)carbamate]	≤0.5	
Cc1nc(-c2onc(C)c2Nc2cncc(-c3ccccc3)n2)ccc1NC(=O)[C@@H]1[C@@H](C(=O)O)C1(F)F [Compound 12, (1S,3S)-2,2-difluoro-3-((2-methyl-6-(3-methyl-4-((6-phenylpyrazin-2-yl)amino)isoxazol-5-yl)pyridin-3-yl)carbamoyl)cyclopropane-1-carboxylic acid]	≤0.5	< 50
Cc1nc(-c2onc(C)c2COC(=O)N(C)C2CCCC2)ccc1NC(=O)C1C(C(=O)O)C1(F)F (stereo not shown) [Compound 37, 3-((6-(4-(((cyclopentyl(methyl)carbamoyl)oxy)methyl)-3-methylisoxazol-5-yl)-2-methylpyridin-3-yl)carbamoyl)-2,2-difluorocyclopropane-1-carboxylic acid]	≤0.5	50 to 100
Cc1nc(-c2onc(C)c2NC(=O)O[C@H](C)c2ccccc2Cl)ccc1CNC(=O)C1C(C(=O)O)C1(F)F (mixture of isomers) [Compound 17, 3-(((6-(4-((((R)-1-(2-chlorophenyl)ethoxy)carbonyl)amino)-3-methylisoxazol-5-yl)-2-methylpyridin-3-yl)methyl)carbamoyl)-2,2-difluorocyclopropane-1-carboxylic acid, mix of Trans diastereomers]	≤0.5	
Cc1nc(-c2onc(C)c2NC(=O)O[C@H](C)c2ccccc2Cl)ccc1NC(=O)[C@@H]1[C@@H](C(=O)O)C1(F)F [Compound 1, (1S,3S)-3-((6-(4-((((R)-1-(2-chlorophenyl)ethoxy)carbonyl)amino)-3-methylisoxazol-5-yl)-2-methylpyridin-3-yl)carbamoyl)-2,2-difluorocyclopropane-1-carboxylic acid]	≤0.5	
Cc1nc(-c2onc(C)c2NC(=O)O[C@H](C)c2ccccc2Cl)ccc1CNC(=O)C1C(C(=O)O)C1(F)F (mixture of isomers) [Compound 16, 3-(((6-(4-((((R)-1-(2-chlorophenyl)ethoxy)carbonyl)amino)-3-methylisoxazol-5-yl)-2-methylpyridin-3-yl)methyl)carbamoyl)-2,2-difluorocyclopropane-1-carboxylic acid, mix of Cis diastereomers]	≤0.5	
Cc1nc(-c2onc(C)c2NC(=O)O[C@H](C)c2ccccc2Cl)ccc1NC(=O)C1C(C(=O)O)C1(F)F (stereo partly drawn) [Compound 4, 3-((6-(4-((((R)-1-(2-chlorophenyl)ethoxy)carbonyl)amino)-3-methylisoxazol-5-yl)-2-methylpyridin-3-yl)carbamoyl)-2,2-difluorocyclopropane-1-carboxylic acid]	≤0.5	
